## Cleaved PARP after 72 h of treatment

Values as published with doi:10.1371/journal.pone.0140310, rounded.

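The test systems are human melanoma cell lines, treated with two drugs together for 72 h and then stained and imaged. Values are the share of nuclei positive for cleaved PARP as a percentage of the same share in the DMSO control: 100 is the control level, higher means more apoptosis. Concentrations were fixed for each drug; these are the higher of two levels. No replicate spread is given; individual values may be noisy. The marker varies much from line to line, for technical or biological reasons.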 An unselected part of the screen is shown. An entry leaves out what has no value listed here.

First drug in all entries: TCS401, 8.33 µM, O=C(O)C(=O)Nc1sc2c(c1C(=O)O)CCNC2

Partner: Nc1cccc2c1CN(C1CCC(=O)NC1=O)C2=O (stereo unspecified) at 5 µM
MeWo: 78.8
G-361: 178
SK-MEL-2: 109
UACC-62: 235
SK-MEL-5: 165
WM3526: 79.2

Partner: C#Cc1cccc(Nc2ncnc3cc(OCCOC)c(OCCOC)cc23)c1 at 4 µM
MeWo: 49.5
G-361: 103
SK-MEL-2: 171
UACC-62: 44.7
SK-MEL-5: 209
WM3526: 139

Partner: Nc1ncn([C@H]2C[C@H](O)[C@@H](CO)O2)c(=O)n1 at 0.5 µM
MeWo: 271
G-361: 44.3
UACC-62: 84.7
SK-MEL-5: 85.3
WM3526: 117

Partner: COc1ccc(C2=N[C@@H](c3ccc(Cl)cc3)[C@@H](c3ccc(Cl)cc3)N2C(=O)N2CCNC(=O)C2)c(OC(C)C)c1 at 0.5 µM
MeWo: 74.6
G-361: 81.9
SK-MEL-2: 118
UACC-62: 192
SK-MEL-5: 103
WM3526: 128

Partner: O=c1cc(-c2cccc3c2Sc2ccccc2S3)oc(N2CCOCC2)c1 at 5 µM
MeWo: 119
G-361: 39.5
SK-MEL-2: 109
UACC-62: 43.6
SK-MEL-5: 150
WM3526: 87.1

Partner: Cc1cc([N+](=O)[O-])ccc1NS(=O)(=O)c1cc(Cl)ccc1Cl at 5 µM
MeWo: 33.2
G-361: 164
SK-MEL-2: 133
UACC-62: 128
SK-MEL-5: 131
WM3526: 89.8

Partner: Oc1cc(-c2nc(-c3ccccc3)[nH]c2-c2ccncc2)ccc1Cl at 1 µM
MeWo: 67.3
G-361: 188
SK-MEL-2: 384
UACC-62: 344
SK-MEL-5: 151
WM3526: 345

Partner: Cn1nnc2c(C(N)=O)ncn2c1=O at 10 µM
MeWo: 107
G-361: 206
SK-MEL-2: 80.1
UACC-62: 138
SK-MEL-5: 140
WM3526: 50.9

Partner: N#Cc1c(O)c2c(-c3ccc(-c4ccccc4O)cc3)csc2[nH]c1=O at 10 µM
MeWo: 53.9
G-361: 114
SK-MEL-2: 118
UACC-62: 203
SK-MEL-5: 93.9
WM3526: 43.7

Partner: Cc1cc(Nc2cc(N3CCN(C)CC3)nc(/C=C/c3ccccc3)n2)n[nH]1 at 0.2 µM
MeWo: 100
G-361: 127
SK-MEL-2: 169
UACC-62: 121
SK-MEL-5: 136
WM3526: 114

Partner: COc1cc2ncnc(Nc3ccc(Oc4ccccc4)cc3)c2cc1OC at 10 µM
MeWo: 116
G-361: 183
SK-MEL-2: 59.1
UACC-62: 146
SK-MEL-5: 65.8
WM3526: 108

Partner: NC1(c2ccc(-c3nc4ccn5c(=O)[nH]nc5c4cc3-c3ccccc3)cc2)CCC1 at 2 µM
MeWo: 97.6
G-361: 29.5
SK-MEL-2: 40.5
UACC-62: 128
SK-MEL-5: 136
WM3526: 164

Partner: O=C1NC(=O)/C(=C/c2ccc(-c3ccc(F)cc3O)o2)S1 at 5 µM
MeWo: 162
G-361: 92.7
SK-MEL-2: 70.3
UACC-62: 75.6
SK-MEL-5: 237
WM3526: 192

Partner: CS(=O)(=O)c1ccc(C(=O)Nc2ccc(Cl)c(-c3ccccn3)c2)c(Cl)c1 at 5 µM
MeWo: 97.6
G-361: 125
SK-MEL-2: 89.6
UACC-62: 83.1
SK-MEL-5: 114
WM3526: 72.9

Partner: CO[C@H]1C[C@@H]2CC[C@@H](C)[C@@](O)(O2)C(=O)C(=O)N2CCCC[C@H]2C(=O)O[C@H]([C@H](C)C[C@@H]2CC[C@@H](OCCO)[C@H](OC)C2)CC(=O)[C@H](C)/C=C(\C)[C@@H](O)[C@@H](OC)C(=O)[C@H](C)C[C@H](C)/C=C/C=C/C=C/1C at 0.1 µM
MeWo: 83.5
G-361: 90.0
SK-MEL-2: 105
UACC-62: 248
SK-MEL-5: 203
WM3526: 72.0

Partner: NCC(=O)Nc1ccc(-n2nc(C(F)(F)F)cc2-c2ccc3c(ccc4ccccc43)c2)cc1 at 5 µM
MeWo: 84.6
G-361: 146
SK-MEL-2: 765
UACC-62: 85.8
SK-MEL-5: 194
WM3526: 557

Partner: CCCCCCCCCCCC1=C(O)C(=O)C=C(O)C1=O at 6 µM
MeWo: 69.9
G-361: 143
SK-MEL-2: 95.4
UACC-62: 13.2
SK-MEL-5: 98.2
WM3526: 109

Partner: O=C(Oc1ccc([N+](=O)[O-])cc1)N1CCC(C(O)(c2ccc3c(c2)OCO3)c2ccc3c(c2)OCO3)CC1 at 5 µM
MeWo: 169
G-361: 70.5
SK-MEL-2: 96.1
UACC-62: 47.0
SK-MEL-5: 120
WM3526: 57.9

Partner: Cc1nc(Nc2ncc(C(=O)Nc3c(C)cccc3Cl)s2)cc(N2CCN(CCO)CC2)n1 at 0.02 µM
MeWo: 58.4
G-361: 87.5
SK-MEL-2: 102
UACC-62: 137
SK-MEL-5: 97.8
WM3526: 118

Partner: COCC[n+]1c2c(n(Cc3cnccn3)c1C)C(=O)c1ccccc1C2=O at 0.002 µM
MeWo: 192
G-361: 94.3
SK-MEL-2: 699
UACC-62: 239
SK-MEL-5: 354
WM3526: 1110

Partner: Nc1nc(F)nc2c1ncn2[C@@H]1O[C@H](CO)[C@@H](O)[C@@H]1O at 1 µM
MeWo: 78.3
G-361: 71.3
SK-MEL-2: 892
UACC-62: 42.0
SK-MEL-5: 583
WM3526: 1930

The last 2 entries again:

Partner,MeWo,G-361,SK-MEL-2,UACC-62,SK-MEL-5,WM3526
COCC[n+]1c2c(n(Cc3cnccn3)c1C)C(=O)c1ccccc1C2=O at 0.002 µM,192,94.3,699,239,354,1110
Nc1nc(F)nc2c1ncn2[C@@H]1O[C@H](CO)[C@@H](O)[C@@H]1O at 1 µM,78.3,71.3,892,42.0,583,1930